Laboratory results published in the supplement of paper PMC10849652.
The list shows a part of the results.

By UniProt entry, the sequences of proteins in these tests, tags left out. Where a name states a change or a piece, a line headed by the entry shows the natural chain unless it says otherwise.
UniProt P78368: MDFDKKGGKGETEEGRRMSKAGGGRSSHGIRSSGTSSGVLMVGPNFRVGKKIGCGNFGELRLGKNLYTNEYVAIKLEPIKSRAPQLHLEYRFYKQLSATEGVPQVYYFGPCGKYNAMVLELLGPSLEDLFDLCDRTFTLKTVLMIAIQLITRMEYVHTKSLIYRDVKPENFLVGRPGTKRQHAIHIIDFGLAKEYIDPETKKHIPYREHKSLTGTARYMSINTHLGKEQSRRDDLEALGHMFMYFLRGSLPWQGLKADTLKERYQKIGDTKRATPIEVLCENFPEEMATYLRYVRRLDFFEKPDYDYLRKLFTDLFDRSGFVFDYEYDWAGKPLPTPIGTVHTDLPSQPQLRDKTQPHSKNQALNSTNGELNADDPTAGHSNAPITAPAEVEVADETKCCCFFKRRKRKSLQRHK
UniProt Q12887: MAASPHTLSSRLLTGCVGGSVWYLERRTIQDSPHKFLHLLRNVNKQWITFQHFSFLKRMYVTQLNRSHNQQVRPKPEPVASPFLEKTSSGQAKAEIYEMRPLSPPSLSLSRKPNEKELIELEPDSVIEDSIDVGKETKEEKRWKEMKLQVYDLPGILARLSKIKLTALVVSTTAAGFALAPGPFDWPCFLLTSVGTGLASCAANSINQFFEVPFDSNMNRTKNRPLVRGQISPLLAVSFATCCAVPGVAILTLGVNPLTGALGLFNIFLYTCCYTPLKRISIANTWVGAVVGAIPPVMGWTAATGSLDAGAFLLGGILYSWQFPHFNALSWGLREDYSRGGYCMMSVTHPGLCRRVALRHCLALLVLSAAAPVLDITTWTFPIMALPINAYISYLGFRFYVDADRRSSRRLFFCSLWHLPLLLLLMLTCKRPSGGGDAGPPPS
UniProt Q14194, whole entry, looked up: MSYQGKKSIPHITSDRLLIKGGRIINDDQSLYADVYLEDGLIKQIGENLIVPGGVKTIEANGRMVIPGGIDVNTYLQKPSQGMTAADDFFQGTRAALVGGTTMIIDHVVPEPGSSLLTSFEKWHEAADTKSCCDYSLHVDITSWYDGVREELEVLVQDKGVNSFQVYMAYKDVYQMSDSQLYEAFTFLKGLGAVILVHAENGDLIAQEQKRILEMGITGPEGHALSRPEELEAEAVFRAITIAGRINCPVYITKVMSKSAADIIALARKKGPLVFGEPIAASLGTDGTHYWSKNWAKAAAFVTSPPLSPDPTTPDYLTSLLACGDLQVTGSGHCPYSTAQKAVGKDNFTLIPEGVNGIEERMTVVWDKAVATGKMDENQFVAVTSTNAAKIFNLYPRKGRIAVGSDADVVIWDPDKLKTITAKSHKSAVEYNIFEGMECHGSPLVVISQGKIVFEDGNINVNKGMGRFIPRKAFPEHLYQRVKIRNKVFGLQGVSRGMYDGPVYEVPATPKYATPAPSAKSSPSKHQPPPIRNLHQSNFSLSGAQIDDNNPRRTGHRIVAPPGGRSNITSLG
UniProt Q70SY1: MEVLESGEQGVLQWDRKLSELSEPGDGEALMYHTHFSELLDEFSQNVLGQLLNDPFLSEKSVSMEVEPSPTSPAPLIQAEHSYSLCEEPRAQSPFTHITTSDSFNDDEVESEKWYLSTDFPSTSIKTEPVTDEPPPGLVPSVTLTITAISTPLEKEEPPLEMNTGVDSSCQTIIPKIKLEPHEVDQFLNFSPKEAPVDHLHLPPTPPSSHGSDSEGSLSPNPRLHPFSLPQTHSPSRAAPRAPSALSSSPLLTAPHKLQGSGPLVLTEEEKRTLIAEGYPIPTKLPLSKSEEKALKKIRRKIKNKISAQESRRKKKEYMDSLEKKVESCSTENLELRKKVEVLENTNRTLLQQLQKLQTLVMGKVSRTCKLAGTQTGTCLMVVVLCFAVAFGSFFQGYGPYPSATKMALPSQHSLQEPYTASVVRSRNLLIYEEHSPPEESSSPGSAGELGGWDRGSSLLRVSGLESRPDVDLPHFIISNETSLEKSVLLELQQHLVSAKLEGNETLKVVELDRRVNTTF
UniProt Q9UBI1, whole entry, looked up: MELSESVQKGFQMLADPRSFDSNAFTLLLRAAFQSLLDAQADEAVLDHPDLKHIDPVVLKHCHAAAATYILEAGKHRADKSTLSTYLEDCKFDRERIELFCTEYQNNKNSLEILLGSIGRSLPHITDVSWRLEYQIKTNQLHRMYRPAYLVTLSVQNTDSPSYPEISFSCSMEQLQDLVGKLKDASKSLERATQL
UniProt P15169: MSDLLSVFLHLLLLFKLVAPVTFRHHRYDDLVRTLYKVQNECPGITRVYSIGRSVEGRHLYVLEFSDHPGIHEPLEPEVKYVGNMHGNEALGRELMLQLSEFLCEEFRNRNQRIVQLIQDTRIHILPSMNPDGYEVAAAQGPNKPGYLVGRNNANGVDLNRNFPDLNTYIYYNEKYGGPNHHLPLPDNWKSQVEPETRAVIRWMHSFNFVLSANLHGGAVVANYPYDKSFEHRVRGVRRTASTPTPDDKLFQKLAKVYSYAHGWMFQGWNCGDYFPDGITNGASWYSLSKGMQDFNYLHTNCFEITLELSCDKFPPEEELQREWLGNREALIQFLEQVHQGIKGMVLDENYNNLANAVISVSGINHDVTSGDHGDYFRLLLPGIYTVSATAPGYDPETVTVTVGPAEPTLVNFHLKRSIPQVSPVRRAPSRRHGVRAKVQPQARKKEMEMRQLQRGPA
UniProt O14810: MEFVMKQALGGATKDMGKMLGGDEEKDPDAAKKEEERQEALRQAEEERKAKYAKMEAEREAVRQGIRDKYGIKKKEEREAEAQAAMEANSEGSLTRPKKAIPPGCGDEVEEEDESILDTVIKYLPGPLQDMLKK
UniProt Q9BWP8: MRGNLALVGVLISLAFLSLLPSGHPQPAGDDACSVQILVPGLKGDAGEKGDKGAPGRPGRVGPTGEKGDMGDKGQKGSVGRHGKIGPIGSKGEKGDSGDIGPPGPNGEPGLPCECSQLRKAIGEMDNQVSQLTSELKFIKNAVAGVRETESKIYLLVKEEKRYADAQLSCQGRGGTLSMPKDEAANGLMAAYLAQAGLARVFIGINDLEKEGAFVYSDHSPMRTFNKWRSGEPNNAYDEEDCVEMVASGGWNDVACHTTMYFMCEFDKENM
UniProt Q7Z4G1, whole entry, looked up: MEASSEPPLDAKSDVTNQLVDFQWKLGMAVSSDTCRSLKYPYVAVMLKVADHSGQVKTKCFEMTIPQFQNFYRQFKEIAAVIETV
UniProt Q8N6G5: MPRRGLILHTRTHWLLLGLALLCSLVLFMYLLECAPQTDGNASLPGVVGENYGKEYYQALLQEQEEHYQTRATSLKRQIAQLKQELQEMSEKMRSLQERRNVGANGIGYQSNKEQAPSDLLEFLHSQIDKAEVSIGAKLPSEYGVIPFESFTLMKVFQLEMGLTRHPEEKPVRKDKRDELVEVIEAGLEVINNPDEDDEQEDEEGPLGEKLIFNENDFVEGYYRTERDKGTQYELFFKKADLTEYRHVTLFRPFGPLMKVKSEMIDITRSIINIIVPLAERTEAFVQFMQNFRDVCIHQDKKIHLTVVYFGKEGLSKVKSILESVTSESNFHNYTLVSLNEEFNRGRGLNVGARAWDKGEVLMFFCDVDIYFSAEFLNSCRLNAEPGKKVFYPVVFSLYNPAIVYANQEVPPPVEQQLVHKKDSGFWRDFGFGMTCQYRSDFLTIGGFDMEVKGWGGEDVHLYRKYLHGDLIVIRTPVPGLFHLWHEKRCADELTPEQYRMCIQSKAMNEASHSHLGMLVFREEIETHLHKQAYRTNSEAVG
UniProt Q96H96: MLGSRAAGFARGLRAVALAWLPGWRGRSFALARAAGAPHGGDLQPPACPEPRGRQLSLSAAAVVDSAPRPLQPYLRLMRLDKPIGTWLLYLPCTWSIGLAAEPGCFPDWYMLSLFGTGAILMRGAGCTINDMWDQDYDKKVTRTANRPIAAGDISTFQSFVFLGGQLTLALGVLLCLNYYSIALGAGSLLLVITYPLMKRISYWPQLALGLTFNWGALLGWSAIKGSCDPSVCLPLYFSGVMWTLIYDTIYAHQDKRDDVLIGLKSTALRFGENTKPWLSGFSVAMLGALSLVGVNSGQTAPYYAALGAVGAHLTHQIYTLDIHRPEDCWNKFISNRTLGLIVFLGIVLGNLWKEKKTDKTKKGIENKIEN
UniProt Q9UI42: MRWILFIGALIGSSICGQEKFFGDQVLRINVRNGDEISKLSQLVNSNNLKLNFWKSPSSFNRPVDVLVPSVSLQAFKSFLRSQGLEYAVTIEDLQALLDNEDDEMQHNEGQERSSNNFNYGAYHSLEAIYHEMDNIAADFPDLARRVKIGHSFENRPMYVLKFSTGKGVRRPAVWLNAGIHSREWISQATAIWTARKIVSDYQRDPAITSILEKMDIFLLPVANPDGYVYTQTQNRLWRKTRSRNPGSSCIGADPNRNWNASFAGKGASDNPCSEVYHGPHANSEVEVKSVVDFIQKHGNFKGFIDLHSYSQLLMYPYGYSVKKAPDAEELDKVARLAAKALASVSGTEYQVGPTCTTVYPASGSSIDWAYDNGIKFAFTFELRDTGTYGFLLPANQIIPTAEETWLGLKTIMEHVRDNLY
UniProt P53674: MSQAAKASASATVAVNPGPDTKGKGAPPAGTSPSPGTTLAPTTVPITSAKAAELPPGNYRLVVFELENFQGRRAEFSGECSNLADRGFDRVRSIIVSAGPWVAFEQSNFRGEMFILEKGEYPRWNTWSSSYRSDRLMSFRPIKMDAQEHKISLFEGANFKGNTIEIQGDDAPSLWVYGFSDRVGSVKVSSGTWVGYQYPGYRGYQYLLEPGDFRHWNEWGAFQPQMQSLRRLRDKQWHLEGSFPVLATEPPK
UniProt P00450: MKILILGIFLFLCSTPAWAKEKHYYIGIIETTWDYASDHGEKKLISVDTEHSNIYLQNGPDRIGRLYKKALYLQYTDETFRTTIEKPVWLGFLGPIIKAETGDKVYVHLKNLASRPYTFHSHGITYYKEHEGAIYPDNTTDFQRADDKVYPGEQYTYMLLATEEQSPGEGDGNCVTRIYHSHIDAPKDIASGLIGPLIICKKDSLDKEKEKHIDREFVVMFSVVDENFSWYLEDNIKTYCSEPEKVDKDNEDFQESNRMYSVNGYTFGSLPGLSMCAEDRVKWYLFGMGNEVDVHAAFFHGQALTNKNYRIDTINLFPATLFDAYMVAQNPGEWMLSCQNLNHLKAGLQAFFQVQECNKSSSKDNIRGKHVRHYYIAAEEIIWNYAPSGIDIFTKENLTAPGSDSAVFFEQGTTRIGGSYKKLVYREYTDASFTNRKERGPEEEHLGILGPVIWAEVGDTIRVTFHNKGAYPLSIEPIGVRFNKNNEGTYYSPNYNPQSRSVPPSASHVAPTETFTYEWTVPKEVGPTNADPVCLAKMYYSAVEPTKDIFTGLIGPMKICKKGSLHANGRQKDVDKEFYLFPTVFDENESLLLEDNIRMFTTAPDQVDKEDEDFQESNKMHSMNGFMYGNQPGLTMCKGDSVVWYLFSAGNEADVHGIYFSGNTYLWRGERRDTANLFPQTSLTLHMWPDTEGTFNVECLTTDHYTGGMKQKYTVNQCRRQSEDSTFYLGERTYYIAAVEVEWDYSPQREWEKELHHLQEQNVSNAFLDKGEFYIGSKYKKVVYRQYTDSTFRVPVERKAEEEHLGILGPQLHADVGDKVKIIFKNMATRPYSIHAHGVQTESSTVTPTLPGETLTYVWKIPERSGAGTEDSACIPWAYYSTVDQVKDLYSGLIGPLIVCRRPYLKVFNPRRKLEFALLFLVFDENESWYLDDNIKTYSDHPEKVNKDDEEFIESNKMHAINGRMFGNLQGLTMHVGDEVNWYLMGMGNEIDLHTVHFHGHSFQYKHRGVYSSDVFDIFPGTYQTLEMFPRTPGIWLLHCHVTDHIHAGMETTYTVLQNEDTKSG
UniProt Q49AN0: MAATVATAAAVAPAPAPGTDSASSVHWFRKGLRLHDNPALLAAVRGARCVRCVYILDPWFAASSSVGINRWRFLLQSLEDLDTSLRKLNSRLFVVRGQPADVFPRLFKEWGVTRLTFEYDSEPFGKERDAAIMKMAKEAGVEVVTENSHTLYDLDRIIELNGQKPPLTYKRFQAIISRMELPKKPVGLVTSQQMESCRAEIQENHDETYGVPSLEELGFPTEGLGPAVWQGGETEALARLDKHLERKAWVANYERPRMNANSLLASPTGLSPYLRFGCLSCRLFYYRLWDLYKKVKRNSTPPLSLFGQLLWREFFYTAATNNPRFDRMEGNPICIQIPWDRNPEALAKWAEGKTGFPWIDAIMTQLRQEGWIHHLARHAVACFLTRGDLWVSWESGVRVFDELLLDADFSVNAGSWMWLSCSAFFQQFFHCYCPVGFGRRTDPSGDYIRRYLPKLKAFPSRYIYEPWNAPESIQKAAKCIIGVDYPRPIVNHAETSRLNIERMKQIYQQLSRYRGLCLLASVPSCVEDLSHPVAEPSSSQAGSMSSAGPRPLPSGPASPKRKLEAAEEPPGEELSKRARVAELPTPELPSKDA
UniProt P78560: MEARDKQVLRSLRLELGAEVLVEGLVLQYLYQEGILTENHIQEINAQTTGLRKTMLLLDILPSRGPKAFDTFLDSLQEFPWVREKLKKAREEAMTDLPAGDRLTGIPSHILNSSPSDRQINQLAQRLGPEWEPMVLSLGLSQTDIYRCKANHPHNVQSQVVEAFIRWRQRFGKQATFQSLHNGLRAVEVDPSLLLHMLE

Columns and labels:
Assay in all cases: log2 fold change, soluble protein after heating vs DMSO (PISA); higher = thermal stabilisation; K562 cells, 10 uM, 30 min; active = over 0.2 and 3.5 SD of the protein, either way, in both replicates (recomputed)
[1] = compound: CC1=C(C=C(C=C1)NC(=O)C2=CC(=CC=C2)C(C)(C)C#N)NC3=CC4=C(C=C3)N=CN(C4=O)C
Summary of the method: (§1)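 K562 cells at 2×10^6 cells/mL were treated with 10 μM compound for 30 min. Aliquots were heated for 3 min across 48°C-58°C, pooled, and extracted in PBS with 0.5% NP-40 at 4°C; soluble protein was the supernatant after 21,000xg for 90 min. Soluble protein was quantified by TMTpro 16plex LC-MS/MS with channel sums equalised, and reported as log2 fold change in thermal stability against DMSO controls, with values from duplicates.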

[2] = compound: CC1=NC(=CC=C1)C2=C(N=C(N2)C(C)(C)C)C3=CC4=NC=CN=C4C=C3
Summary of the method: as §1

[3] = compound: CCCCN(Cc1ccc(C(=O)NO)cc1)C(=O)Nc1ccccc1 [Nexturastat A]
Summary of the method: as §1

[4] = compound: CCCc1cc(C)[nH]c(=O)c1CNC(=O)c1cc(-c2ccnc(N3CCN(C)CC3)c2)cc2c1cnn2C(C)C
Summary of the method: as §1

[5] = compound: CC[C@H](C)N1C=C(C2=C(C=C(C=C21)C3=CN=C(C=C3)N4CCNCC4)C(=O)NCC5=C(C=C(NC5=O)C)C)C
Summary of the method: as §1

[6] = compound: CC[C@H](C)[C@@H](C(=O)N[C@@H]([C@@H](C)O)C(=O)N[C@@H](CC(C)C)C(=O)[C@]1(CO1)C)NC(=O)[C@H]([C@@H](C)CC)N(C)C(=O)C [epoxomicin]
Summary of the method: as §1

[7] = compound: CCn1cc(-c2ccnc3[nH]c(-c4cccc(CN(C)C)c4)cc23)c(-c2ccc(NC(=O)N(C)C)cc2)n1
Summary of the method: as §1

[8] = compound: CN1CCC(CNc2ccc3ncc(-c4cccc(OC(F)(F)F)c4)n3n2)CC1
Summary of the method: as §1

[9] = compound: CC1=C(C=C(C=C1)NC(=O)C2=CC(=CC=C2)N(C)C)NC(=O)C3=CC=C(C=C3)O
Summary of the method: as §1

[10] = compound: CC1=CC=C(C=C1)SC2=C3C=C(SC3=CN=C2)C(=O)N
Summary of the method: as §1

[11] = compound: CCCS(=O)(=O)Nc1ccc(F)c(C(=O)c2c[nH]c3ncc(-c4ccc(Cl)cc4)cc23)c1F [vemurafenib]
Summary of the method: as §1

[12] = compound: CCCS(=O)(=O)Nc1ccc(F)c(C(=O)c2c[nH]c3ncc(Cl)cc23)c1F
Summary of the method: as §1

[13] = compound: CCN(CC)Cc1ccc2cc(COC(=O)Nc3ccc(C(=O)NO)cc3)ccc2c1 [givinostat]
Summary of the method: as §1

[14] = compound: CCN(CCCOc1ccc2c(Nc3cc(CC(=O)Nc4cccc(F)c4)[nH]n3)ncnc2c1)CCOP(=O)(O)O [barasertib]
Summary of the method: as §1

[15] = compound: CC[C@@H]1C(=O)N(C)c2cnc(Nc3ccc(C(=O)NC4CCN(C)CC4)cc3OC)nc2N1C1CCCC1
Summary of the method: as §1

[16] = compound: CC[C@@H]1C(=O)N(C)c2cnc(Nc3ccc(C(=O)N[C@H]4CC[C@H](N5CCN(CC6CC6)CC5)CC4)cc3OC)nc2N1C(C)C [volasertib]
Summary of the method: as §1

[17] = compound: CCn1c(C(=O)N(C2CC2)C2CC2)cc2c3c(ncn3C)c(Nc3cc(C)n(C)n3)nc21
Summary of the method: as §1

[18] = compound: CN(C)CC(=O)Nc1ccc2[nH]c(=O)c3ccccc3c2c1
Summary of the method: as §1

[19] = compound: CN(CCOC1=CC=C(C=C1)C[C@H]2C(=O)NC(=O)S2)C3=CC=CC=N3 (racemic) [rosiglitazone]
Summary of the method: as §1

[20] = compound: CN1C2=C(C3=C1C(=O)N(N=C3)CC4=CC(=CC=C4)N)SC(=C2)S(=O)C
Summary of the method: as §1

Measured: log2 fold change

CSNK1G2 (UniProt P78368)
inactive: [1] 0.086 | [2] 0 | [3] 0.182 | [4] -0.537 | [5] -0.027 | [6] -0.014 | [7] 0.164 | [8] -0.185

COX10 (UniProt Q12887)
inactive: [9] 0 | [10] 0.114 | [2] 0.029 | [3] 0.051 | [11] 0.036 | [12] -0.004 | [4] 0.051 | [13] 0.016 | [14] 0.006 | [15] 0.08 | [16] 0.072 | [5] 0.181 | [6] 0.026 | [17] -0.024 | [7] 0.335 | [18] -0.092 | [19] 0.026 | [20] -0.09 | [8] -0.185

CROCCP2 (UniProt Q86T23)
inactive: [9] -0.022 | [13] -0.213 | [14] 0.016 | [15] 0.042 | [17] -0.05 | [19] 0.036

CRMP1 isoform 2 (UniProt Q14194)
inactive: [1] 0.089 | [11] -0.026 | [13] -0.19 | [14] 0.035 | [5] 0.2 | [7] -0.198 | [18] -0.072 | [20] -0.25 | [8] 0.038

CRNN (UniProt Q9UBG3)
inactive: [4] 0.858 | [13] 0.496 | [14] 0.467 | [17] 0.082 | [19] 0.247

COL3A1 (UniProt P02461)
inactive: [9] 0.461 | [10] 0.018 | [2] 0.038 | [3] -0.143 | [11] 0.051 | [12] -0.009 | [13] -0.059 | [16] 0.199 | [6] -0.038 | [17] 0.06 | [7] -0.016 | [18] -0.176 | [20] 0.104 | [8] 0.24

CREB3L2 (UniProt Q70SY1)
inactive: [9] 0.085 | [2] -0.23 | [11] -0.036 | [4] 0.154 | [13] 0.436 | [14] 0.081 | [5] 0.067 | [6] 0.035 | [18] 0.069
active: [3] 0.706

COMMD3 (UniProt Q9UBI1)
inactive: [9] -0.163 | [10] 0.159 | [2] -0.009 | [11] 0.14 | [12] 0.067 | [4] 0.048 | [14] 0.089 | [15] -0.129 | [16] -0.432 | [5] 0.07 | [18] -0.09 | [19] 0.043 | [20] 0.001

COL2A1 (UniProt P02458)
inactive: [11] 0.263 | [18] -0.136 | [20] 0.156

CPN1 (UniProt P15169)
inactive: [9] 0.215 | [11] -0.026 | [13] -0.034 | [14] 0.002 | [17] 0.1 | [18] -0.089 | [19] 0.201 | [20] 0.328

CPLX1 (UniProt O14810)
inactive: [9] 0.049 | [2] 0.004 | [3] -0.105 | [11] -0.14 | [4] -0.142 | [13] -0.237 | [14] 0.058 | [6] 0.014 | [17] -0.188 | [7] -0.044 | [18] 0.069 | [19] -0.007 | [20] 0.058 | [8] 0.043

COL25A1 (UniProt Q9BXS0)
inactive: [3] -0.082 | [13] 0.142 | [14] -0.228 | [6] -0.19 | [17] 0.051 | [19] 0.347

COLEC11 isoform 10 (UniProt Q9BWP8)
inactive: [2] -0.251 | [3] 0.097 | [11] 0.019 | [4] -0.056 | [14] -0.04 | [5] 0.01 | [6] -0.116 | [18] -0.041 | [19] -0.016 | [20] 0.147

CPNE7 (UniProt Q9UBL6)
inactive: [9] 0.013 | [10] 0.045 | [2] -0.035 | [11] 0.08 | [12] -0.037 | [4] -0.006 | [13] 0.028 | [14] 0.031 | [15] -0.119 | [16] -0.057 | [5] 0.042 | [17] -0.093 | [18] -0.03 | [19] 0.048 | [20] -0.035

COMMD6 isoform 2 (UniProt Q7Z4G1)
inactive: [3] 0.035 | [11] -0.008 | [13] 0.176 | [15] 0.175 | [6] 0.33 | [17] 0.083 | [7] -0.439 | [18] 0.009 | [8] -0.211

Random excerpt: 2 records from the list.
COMMD6 isoform 2 (UniProt Q7Z4G1)
inactive: [3] 0.035 | [11] -0.008 | [13] 0.176 | [15] 0.175 | [6] 0.33 | [17] 0.083 | [7] -0.439 | [18] 0.009 | [8] -0.211

COLEC11 isoform 10 (UniProt Q9BWP8)
inactive: [2] -0.251 | [3] 0.097 | [11] 0.019 | [4] -0.056 | [14] -0.04 | [5] 0.01 | [6] -0.116 | [18] -0.041 | [19] -0.016 | [20] 0.147

The listing continues:

CPSF4 (UniProt O95639)
inactive: [9] -0.101 | [4] -0.119 | [14] -0.083 | [5] 0.063 | [7] 0.103 | [19] -0.102 | [8] 0.068

CRYAB (UniProt P02511)
inactive: [1] -0.133 | [2] -0.273 | [3] 0.426 | [11] 0.023 | [15] 0.433 | [6] 0.077 | [18] 0.131 | [20] 0.332

CRABP2 (UniProt P29373)
inactive: [3] 0.033 | [4] 0.03 | [6] 0.116 | [7] 0.271 | [20] 0.175 | [8] 0.038

CSGALNACT2 (UniProt Q8N6G5)
inactive: [2] 0.171 | [3] 0.152 | [14] -0.098 | [5] -0.045 | [6] 0.016 | [19] -0.205

COQ2 (UniProt Q96H96)
inactive: [3] -0.346 | [13] 0.047 | [15] -0.092 | [6] -1.35 | [17] -0.02

CR1L (UniProt Q2VPA4)
inactive: [13] 0.101 | [17] -0.036

CORO6 isoform 5 (UniProt Q6QEF8)
inactive: [1] -0.058 | [2] -0.283 | [3] -0.077 | [11] -0.018 | [6] -0.004 | [18] 0.097

CPA4 (UniProt Q9UI42)
inactive: [11] 0.408 | [15] 0.284 | [18] 0.809

CRISP3 isoform 3 (UniProt P54108)
inactive: [14] 0.39 | [19] -0.276

CRYBB1 (UniProt P53674)
inactive: [2] 0.079 | [3] -0.142 | [13] 0.068 | [6] -0.16 | [17] -0.288 | [20] -0.156

CS (UniProt F8VU34)
inactive: [14] -0.024 | [15] -0.093

CRAT (UniProt P43155)
inactive: [10] 0.03 | [12] 0.289 | [16] -0.191

CP (UniProt P00450)
inactive: [9] 0.44 | [10] 0.029 | [12] -0.044 | [14] -0.117 | [16] 0.147 | [19] -0.104

COP1 (UniProt Q8NHY2)
inactive: [9] -0.056 | [10] 0.231 | [12] -0.021 | [16] -0.054

COMMD3-BMI1 (UniProt R4GMX3)
active: [12] -0.426
inactive: [1] -0.002 | [10] -0.126 | [3] 0.03 | [16] 0.038 | [5] 0.062 | [6] 0.026 | [7] 0.006 | [8] -0.105

CRABP1 (UniProt P29762)
inactive: [11] -0.171 | [7] -0.4 | [18] -0.256 | [8] 0.045

CRY2 (UniProt Q49AN0)
inactive: [11] 0.013 | [14] 0.019 | [5] 0.331 | [18] 0.046 | [19] 0.047 | [20] -0.03

CSNK1A1 isoform 3 (UniProt P48729)
inactive: [10] -0.08 | [12] 0.227 | [4] -0.035 | [14] -0.089 | [16] -0.224

CRADD (UniProt P78560)
inactive: [2] 0.004 | [11] 0.113 | [13] 0.064 | [17] 0.028 | [18] 0.272

CPNE5 (UniProt Q9HCH3)
inactive: [13] -0.005

COL6A3 (UniProt P12111)
inactive: [10] 0.203 | [3] 0.168 | [12] -0.166 | [13] 0.249 | [15] -0.281 | [16] 0.252 | [6] -0.133 | [17] 0.013 | [7] -0.064 | [8] 0.093
